Test results taken from article PMC7688313.
No constants are given. Whether binding was seen depends on the method and setting. In cells and extracts the contact can be indirect. Some binding calls cover weakened binding; strength is not graded here. For part of these data: Sequences can lack the tags named with a protein.

Protein sequences, listed by entry. Tags and fused reporters are not part of them. Residues count along the entry.
UniProt Q9EQW7: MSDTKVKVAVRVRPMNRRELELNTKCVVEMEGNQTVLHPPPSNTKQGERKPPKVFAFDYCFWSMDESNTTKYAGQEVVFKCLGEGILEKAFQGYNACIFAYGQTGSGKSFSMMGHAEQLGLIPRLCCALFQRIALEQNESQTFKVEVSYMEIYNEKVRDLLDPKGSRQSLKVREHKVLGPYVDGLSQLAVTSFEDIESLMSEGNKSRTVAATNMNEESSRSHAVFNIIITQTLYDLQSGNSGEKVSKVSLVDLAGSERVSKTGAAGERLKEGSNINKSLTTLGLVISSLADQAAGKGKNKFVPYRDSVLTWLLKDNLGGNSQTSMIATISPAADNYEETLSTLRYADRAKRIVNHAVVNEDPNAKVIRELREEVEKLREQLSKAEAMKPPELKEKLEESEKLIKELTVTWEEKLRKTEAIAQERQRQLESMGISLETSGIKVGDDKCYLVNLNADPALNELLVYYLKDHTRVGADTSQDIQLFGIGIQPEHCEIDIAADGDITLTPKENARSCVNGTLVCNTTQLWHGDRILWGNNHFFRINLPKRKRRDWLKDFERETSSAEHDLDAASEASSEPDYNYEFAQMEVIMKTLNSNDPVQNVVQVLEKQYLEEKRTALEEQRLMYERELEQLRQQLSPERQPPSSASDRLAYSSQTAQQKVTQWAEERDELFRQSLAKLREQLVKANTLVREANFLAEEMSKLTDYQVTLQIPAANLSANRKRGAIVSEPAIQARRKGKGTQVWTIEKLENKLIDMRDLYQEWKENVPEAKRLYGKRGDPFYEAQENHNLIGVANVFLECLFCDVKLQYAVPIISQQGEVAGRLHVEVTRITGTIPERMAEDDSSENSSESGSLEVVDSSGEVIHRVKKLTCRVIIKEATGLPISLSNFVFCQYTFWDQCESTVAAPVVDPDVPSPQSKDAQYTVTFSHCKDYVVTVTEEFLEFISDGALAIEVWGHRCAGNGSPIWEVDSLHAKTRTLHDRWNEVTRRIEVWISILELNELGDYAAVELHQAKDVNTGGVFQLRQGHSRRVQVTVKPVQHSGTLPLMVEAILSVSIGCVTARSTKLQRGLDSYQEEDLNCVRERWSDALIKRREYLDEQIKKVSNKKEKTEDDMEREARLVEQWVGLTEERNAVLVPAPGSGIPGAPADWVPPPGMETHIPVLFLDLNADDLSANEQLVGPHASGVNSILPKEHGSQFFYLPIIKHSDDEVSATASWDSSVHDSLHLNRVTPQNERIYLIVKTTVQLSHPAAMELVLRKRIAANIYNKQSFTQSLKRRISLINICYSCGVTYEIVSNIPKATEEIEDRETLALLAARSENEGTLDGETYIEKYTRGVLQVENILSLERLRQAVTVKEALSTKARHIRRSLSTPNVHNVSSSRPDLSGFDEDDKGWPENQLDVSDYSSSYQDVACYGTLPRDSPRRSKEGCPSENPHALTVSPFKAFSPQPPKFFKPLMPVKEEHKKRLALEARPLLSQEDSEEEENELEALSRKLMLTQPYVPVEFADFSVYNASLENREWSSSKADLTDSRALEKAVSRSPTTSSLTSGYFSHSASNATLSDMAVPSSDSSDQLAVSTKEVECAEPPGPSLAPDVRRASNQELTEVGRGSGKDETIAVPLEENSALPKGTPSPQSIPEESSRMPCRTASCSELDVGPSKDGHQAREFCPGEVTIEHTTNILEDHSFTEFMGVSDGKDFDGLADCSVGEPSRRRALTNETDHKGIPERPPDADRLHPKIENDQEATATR
UniProt P35951, residues 22-862: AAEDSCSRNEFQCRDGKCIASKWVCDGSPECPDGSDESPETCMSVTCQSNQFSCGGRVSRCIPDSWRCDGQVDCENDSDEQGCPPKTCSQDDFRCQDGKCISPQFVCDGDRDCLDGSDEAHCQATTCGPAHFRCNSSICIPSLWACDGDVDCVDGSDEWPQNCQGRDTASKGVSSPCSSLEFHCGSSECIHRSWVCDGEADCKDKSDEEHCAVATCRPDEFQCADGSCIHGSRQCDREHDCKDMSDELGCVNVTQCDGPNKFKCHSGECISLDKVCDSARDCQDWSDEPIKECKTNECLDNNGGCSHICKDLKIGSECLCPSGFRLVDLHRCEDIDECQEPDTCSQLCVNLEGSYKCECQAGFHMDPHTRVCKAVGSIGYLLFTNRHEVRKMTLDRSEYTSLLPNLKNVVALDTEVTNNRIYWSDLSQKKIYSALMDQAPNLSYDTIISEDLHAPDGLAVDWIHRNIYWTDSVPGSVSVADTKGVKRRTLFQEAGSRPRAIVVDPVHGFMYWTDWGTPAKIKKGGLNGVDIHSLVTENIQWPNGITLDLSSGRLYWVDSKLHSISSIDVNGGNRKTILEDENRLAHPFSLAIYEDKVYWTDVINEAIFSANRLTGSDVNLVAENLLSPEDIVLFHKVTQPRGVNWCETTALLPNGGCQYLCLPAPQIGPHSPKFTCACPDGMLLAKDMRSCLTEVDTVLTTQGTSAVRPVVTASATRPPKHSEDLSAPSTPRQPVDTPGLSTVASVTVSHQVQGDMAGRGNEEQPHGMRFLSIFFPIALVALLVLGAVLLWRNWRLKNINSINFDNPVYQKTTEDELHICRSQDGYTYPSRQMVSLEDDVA

Key:
BLOS1-FLAG (mouse) = target: T1, BLOS1-FLAG (mouse) (UniProt O55102); test: co-IP; HEK293T cells co-transfected for 48 to 72 hr; whole cell lysate (50 mM Tris-HCl pH 7.0, 150 mM NaCl, 1 mM EDTA, 1% Triton X-100) incubated with anti-FLAG M2 agarose beads overnight at 4°C, no cross-linking; immunoblotting
T1 sequence: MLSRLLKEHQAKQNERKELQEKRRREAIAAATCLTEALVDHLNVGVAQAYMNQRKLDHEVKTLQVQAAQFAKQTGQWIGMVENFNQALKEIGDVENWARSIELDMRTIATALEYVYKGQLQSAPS

KIF13A-FLAG (mouse) = KIF13A-FLAG (mouse) (UniProt Q9EQW7); test: as above
GST-BLOS1 (mouse) = target: T2, GST-BLOS1 (mouse) (UniProt O55102); test: pull-down; GST fusion protein on glutathione-Sepharose beads, washed, incubated with 500 µL mouse liver lysate overnight at 4°C; immunoblotting; only the target purified
T2 sequence: T1 sequence

LDLR (co-overexpressed with BLOS1-FLAG in HEK293T) (from UniProt P35951 22-862) (receptor)
binding (BLOS1-FLAG (mouse)): binds

LDLR-HA (from UniProt P35951 22-862) (receptor)
binding (KIF13A-FLAG (mouse)): binds

LDLR (endogenous, mouse liver lysate) (from UniProt P35951 22-862) (receptor)
binding (GST-BLOS1 (mouse)): binds
